In the supplement of paper PMC10849652:
This is one part of the list.

By UniProt entry, the sequences of proteins in these tests, tags left out. Where a name states a change or a piece, a line headed by the entry shows the natural chain unless it says otherwise.
UniProt Q9NRB3: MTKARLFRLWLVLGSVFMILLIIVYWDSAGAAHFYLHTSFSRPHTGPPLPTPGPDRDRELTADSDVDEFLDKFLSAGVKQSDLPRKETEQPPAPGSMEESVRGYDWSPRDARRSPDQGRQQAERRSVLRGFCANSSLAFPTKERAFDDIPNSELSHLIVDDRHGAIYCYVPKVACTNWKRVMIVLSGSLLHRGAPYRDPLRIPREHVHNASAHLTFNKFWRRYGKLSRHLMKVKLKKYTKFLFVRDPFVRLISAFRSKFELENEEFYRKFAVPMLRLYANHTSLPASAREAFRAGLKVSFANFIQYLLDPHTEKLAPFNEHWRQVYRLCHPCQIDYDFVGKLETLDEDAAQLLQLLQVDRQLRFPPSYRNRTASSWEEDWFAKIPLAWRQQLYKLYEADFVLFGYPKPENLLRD
UniProt Q2KHT3: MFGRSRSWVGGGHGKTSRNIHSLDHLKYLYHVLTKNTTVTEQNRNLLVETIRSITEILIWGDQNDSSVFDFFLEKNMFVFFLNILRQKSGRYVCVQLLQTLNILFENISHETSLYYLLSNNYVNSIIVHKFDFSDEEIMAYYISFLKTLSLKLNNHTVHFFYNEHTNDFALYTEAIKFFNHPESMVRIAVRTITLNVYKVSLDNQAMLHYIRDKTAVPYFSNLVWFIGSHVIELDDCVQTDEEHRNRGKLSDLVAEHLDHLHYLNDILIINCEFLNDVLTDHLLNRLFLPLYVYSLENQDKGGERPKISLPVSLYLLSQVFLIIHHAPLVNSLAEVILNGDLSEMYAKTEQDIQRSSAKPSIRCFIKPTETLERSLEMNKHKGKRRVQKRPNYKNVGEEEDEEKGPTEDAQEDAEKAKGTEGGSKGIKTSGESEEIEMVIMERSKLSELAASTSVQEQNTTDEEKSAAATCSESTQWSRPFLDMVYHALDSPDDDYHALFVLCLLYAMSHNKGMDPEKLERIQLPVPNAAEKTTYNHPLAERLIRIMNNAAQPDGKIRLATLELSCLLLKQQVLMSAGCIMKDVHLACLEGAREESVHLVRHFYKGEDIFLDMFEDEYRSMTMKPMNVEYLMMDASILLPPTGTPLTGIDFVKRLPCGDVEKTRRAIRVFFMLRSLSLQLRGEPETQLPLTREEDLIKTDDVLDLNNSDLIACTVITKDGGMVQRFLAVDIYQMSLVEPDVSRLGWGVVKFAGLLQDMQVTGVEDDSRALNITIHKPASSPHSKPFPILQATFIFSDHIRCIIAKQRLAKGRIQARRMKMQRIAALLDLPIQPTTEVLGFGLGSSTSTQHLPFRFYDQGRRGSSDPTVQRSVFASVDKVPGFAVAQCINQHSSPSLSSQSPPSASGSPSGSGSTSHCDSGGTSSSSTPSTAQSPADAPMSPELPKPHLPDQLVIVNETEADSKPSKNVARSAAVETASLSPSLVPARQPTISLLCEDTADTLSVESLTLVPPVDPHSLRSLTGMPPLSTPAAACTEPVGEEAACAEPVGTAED
UniProt P09496: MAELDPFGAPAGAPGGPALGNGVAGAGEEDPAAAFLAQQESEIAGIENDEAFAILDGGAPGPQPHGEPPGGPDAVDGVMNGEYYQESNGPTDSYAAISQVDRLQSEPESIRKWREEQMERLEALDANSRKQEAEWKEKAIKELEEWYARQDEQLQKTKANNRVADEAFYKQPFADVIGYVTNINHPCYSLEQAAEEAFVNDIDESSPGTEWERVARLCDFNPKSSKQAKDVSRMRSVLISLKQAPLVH
UniProt O96005: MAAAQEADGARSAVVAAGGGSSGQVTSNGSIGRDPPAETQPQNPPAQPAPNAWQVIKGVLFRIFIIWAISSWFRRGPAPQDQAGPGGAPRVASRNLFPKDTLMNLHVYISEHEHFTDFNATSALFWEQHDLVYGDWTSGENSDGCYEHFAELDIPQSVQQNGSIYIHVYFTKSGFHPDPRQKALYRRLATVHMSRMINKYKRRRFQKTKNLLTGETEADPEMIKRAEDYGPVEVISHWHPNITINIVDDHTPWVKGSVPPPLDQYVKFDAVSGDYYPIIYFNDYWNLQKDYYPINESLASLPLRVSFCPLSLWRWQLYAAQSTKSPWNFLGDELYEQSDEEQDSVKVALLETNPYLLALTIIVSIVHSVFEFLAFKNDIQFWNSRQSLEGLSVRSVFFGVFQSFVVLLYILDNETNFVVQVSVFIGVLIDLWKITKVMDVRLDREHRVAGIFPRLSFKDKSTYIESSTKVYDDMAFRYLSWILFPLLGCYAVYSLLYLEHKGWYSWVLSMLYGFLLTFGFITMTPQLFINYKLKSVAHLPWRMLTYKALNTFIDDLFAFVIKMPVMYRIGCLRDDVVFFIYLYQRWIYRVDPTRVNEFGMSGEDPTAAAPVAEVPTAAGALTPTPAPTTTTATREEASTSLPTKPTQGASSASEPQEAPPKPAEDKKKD
UniProt O14967: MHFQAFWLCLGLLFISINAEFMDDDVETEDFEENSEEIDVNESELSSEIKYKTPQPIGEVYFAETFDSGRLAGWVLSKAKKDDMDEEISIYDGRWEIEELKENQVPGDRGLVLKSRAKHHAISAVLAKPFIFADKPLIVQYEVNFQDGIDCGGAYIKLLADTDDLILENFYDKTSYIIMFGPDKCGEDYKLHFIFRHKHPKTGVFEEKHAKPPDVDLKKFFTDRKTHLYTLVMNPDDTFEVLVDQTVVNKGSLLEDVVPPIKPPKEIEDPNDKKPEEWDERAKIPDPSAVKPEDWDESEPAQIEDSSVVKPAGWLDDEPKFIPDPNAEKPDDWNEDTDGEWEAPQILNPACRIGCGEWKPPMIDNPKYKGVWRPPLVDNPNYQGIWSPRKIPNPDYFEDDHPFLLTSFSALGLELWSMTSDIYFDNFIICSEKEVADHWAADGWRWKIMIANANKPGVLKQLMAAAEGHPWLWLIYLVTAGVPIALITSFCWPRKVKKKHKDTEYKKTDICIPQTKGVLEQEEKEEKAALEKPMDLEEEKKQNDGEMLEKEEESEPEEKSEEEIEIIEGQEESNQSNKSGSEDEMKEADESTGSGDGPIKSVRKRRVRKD
UniProt Q96S66: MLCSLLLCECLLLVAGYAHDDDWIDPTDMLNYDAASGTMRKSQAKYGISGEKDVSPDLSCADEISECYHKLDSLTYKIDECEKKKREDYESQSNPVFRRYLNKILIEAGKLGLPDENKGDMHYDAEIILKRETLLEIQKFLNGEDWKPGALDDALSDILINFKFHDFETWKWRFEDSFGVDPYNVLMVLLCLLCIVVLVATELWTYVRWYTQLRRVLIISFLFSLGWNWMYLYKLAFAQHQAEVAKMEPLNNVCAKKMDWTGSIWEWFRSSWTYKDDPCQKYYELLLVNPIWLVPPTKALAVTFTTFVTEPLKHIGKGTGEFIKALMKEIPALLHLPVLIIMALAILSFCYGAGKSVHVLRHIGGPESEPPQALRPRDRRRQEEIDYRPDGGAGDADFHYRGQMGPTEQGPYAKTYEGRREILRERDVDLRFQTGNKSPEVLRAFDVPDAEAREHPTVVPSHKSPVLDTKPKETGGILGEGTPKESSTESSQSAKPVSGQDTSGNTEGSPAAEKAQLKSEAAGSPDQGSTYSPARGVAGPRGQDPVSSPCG
UniProt P08123: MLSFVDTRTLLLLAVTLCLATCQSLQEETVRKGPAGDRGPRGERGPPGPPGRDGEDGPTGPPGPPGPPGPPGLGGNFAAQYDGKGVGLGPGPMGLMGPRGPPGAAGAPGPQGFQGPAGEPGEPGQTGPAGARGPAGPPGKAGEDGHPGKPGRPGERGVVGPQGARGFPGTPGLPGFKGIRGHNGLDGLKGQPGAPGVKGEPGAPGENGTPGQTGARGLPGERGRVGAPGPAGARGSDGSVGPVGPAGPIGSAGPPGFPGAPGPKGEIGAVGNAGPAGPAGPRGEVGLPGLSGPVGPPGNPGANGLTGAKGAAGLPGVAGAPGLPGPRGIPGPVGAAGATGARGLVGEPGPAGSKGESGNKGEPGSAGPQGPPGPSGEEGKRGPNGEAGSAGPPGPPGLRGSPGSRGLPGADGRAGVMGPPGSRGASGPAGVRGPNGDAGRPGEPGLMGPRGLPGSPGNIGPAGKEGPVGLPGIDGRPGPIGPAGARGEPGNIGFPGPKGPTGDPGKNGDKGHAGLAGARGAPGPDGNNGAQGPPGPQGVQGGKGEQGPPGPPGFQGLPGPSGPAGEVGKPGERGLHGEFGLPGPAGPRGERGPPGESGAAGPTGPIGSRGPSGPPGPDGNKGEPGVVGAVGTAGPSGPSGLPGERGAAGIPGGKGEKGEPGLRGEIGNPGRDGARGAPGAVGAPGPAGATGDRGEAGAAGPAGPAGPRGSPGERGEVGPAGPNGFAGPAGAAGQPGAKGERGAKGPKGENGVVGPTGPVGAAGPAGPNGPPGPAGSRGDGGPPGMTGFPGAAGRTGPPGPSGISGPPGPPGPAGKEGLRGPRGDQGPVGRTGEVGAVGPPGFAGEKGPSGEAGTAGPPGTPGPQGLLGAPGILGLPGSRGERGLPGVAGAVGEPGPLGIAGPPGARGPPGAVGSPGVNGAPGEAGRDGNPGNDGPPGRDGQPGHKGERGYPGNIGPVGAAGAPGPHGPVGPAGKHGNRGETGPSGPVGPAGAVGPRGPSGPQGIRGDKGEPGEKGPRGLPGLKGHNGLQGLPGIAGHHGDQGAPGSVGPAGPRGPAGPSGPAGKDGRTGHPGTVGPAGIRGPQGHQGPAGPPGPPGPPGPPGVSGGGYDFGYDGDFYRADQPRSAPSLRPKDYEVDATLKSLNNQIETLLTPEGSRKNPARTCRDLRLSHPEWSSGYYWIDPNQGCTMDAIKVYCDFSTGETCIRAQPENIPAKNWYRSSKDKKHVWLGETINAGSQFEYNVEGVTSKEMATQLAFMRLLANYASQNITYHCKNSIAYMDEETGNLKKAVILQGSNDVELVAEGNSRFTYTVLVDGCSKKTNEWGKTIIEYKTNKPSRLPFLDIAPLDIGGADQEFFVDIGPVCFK
UniProt Q8N5K1: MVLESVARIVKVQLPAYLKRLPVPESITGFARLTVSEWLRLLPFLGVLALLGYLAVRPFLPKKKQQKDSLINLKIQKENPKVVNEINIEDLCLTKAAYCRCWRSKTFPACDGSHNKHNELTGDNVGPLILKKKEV
UniProt Q6PJW8: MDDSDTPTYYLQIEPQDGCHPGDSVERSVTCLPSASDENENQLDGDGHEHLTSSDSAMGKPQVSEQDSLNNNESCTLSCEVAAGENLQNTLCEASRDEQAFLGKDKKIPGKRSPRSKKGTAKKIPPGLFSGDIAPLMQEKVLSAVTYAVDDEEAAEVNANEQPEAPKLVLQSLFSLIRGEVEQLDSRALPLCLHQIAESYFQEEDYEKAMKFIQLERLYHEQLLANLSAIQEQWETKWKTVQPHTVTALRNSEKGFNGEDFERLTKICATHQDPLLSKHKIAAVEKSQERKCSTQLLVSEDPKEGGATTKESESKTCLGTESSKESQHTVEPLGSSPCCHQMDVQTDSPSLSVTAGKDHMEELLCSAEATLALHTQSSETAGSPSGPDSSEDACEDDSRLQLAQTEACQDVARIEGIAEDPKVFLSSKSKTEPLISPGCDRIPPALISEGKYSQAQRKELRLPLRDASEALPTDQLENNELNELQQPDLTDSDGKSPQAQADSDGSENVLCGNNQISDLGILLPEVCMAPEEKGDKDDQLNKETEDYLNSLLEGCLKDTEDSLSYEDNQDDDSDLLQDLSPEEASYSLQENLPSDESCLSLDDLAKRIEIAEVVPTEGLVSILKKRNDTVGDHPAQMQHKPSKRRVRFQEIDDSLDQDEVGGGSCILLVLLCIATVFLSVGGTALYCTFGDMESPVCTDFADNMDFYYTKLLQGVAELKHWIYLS
UniProt Q8NFW8: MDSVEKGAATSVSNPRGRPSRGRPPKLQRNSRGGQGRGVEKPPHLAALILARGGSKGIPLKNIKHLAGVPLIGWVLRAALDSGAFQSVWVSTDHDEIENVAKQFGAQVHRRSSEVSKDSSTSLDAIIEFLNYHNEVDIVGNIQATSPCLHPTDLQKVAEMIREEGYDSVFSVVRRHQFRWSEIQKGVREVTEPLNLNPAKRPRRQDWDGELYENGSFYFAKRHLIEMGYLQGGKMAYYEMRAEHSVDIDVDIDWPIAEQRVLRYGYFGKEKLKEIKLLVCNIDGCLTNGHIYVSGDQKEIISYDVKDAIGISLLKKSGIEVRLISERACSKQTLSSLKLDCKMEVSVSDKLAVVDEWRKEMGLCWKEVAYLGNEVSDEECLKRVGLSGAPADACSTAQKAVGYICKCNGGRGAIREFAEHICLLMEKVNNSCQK
UniProt Q99828: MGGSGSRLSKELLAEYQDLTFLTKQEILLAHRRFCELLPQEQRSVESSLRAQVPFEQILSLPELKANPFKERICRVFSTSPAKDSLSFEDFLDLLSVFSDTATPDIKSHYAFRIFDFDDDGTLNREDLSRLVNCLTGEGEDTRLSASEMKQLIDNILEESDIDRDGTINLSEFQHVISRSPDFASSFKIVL
UniProt Q9Y2R0: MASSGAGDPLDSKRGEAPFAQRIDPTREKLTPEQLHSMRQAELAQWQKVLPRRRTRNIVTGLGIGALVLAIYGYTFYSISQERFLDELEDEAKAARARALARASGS

Columns and labels:
Assay in all cases: log2 fold change, soluble protein after heating vs DMSO (PISA); higher = thermal stabilisation; K562 cells, 10 uM, 30 min; active = over 0.2 and 3.5 SD of the protein, either way, in both replicates (recomputed)
[1] = compound: CS(=O)(=O)c1ccc(-c2cnc(N)c(C(=O)Nc3ccccc3)n2)cc1
Outline: (§1)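 K562 cells at 2×10^6 cells/mL were exposed to 10 μM compound for 30 min, then aliquots were heated for 3 min across 48°C-58°C, pooled, and extracted in PBS containing 0.5% NP-40 at 4°C. The supernatant after 21,000xg for 90 min was taken as soluble protein and measured by TMTpro 16plex LC-MS/MS with channel sums equalised. Thermal stability is reported relative to control samples, with values from duplicates. Fold changes are given on a log2 scale.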

crizotinib = compound: C[C@@H](Oc1cc(-c2cnn(C3CCNCC3)c2)cnc1N)c1c(Cl)ccc(F)c1Cl [crizotinib]
Outline: as §1

[2] = compound: C[C@@H]1COCCN1C2=NC(=NC(=C2)C3(CC3)S(=O)(=O)C)C4=C5C=CNC5=CC=C4
Outline: as §1

[3] = compound: C[C@H](C1=CC=C(C=C1)C(=O)NC2=C3C=CNC3=NC=C2)N
Outline: as §1

duvelisib = compound: C[C@H](Nc1ncnc2nc[nH]c12)c1cc2cccc(Cl)c2c(=O)n1-c1ccccc1 [duvelisib]
Outline: as §1

gandotinib = compound: Cc1cc(Nc2cc(CN3CCOCC3)c3nc(C)c(Cc4ccc(Cl)cc4F)n3n2)n[nH]1 [gandotinib]
Outline: as §1

tozasertib = compound: Cc1cc(Nc2cc(N3CCN(C)CC3)nc(Sc3ccc(NC(=O)C4CC4)cc3)n2)n[nH]1 [tozasertib]
Outline: as §1

[4] = compound: Cc1cc(SCc2sc(-c3ccc(C(F)(F)F)cc3)nc2C)ccc1OCC(=O)O
Outline: as §1

doramapimod = compound: Cc1ccc(-n2nc(C(C)(C)C)cc2NC(=O)Nc2ccc(OCCN3CCOCC3)c3ccccc23)cc1 [doramapimod]
Outline: as §1

ispinesib = compound: Cc1ccc(C(=O)N(CCCN)[C@@H](c2nc3cc(Cl)ccc3c(=O)n2Cc2ccccc2)C(C)C)cc1 [ispinesib]
Outline: as §1

Measured: log2 fold change

CHST12 (UniProt Q9NRB3)
inactive: [1] -0.19 | crizotinib -0.02 | [2] 0.029 | [3] 0.007 | duvelisib 0.078 | gandotinib 0.133 | tozasertib -0.037 | [4] -0.096 | doramapimod 0.048 | ispinesib -0.167

CLEC16A (UniProt Q2KHT3)
inactive: [1] 0.026 | crizotinib -0.026 | [2] 0.092 | [3] 0.019 | duvelisib -0.03 | gandotinib 0.025 | tozasertib -0.017 | [4] -0.055 | doramapimod 0.022 | ispinesib 0.034

CLIC2 (UniProt O15247)
inactive: [1] 0.031 | crizotinib 0.01 | [2] 0.045 | [3] 0.009 | duvelisib -0.019 | gandotinib -0.107 | tozasertib 0.065 | [4] 0.134 | doramapimod -0.07 | ispinesib 0.073

CKMT1A (UniProt P12532)
inactive: [1] 0.019 | crizotinib 0.05 | [2] -0.035 | [3] 0.002 | duvelisib 0.016 | gandotinib 0.014 | tozasertib 0.014 | [4] -0.002 | doramapimod -0.018 | ispinesib 0.032

COG4 (UniProt Q9H9E3)
inactive: [1] -0.172 | crizotinib -0.143 | [2] -0.212 | [3] 0.215 | duvelisib 0.003 | gandotinib 0.052 | tozasertib 0.185 | [4] 0.145 | doramapimod 0.149 | ispinesib -0.073

CNNM3 (UniProt Q8NE01)
inactive: [1] 0.153 | crizotinib 0.061 | [2] 0.047 | [3] -0.069 | duvelisib 0.047 | gandotinib -0.046 | tozasertib -0.001 | [4] 0.019 | doramapimod 0.01 | ispinesib 0.045

CLTA isoform 2 (UniProt P09496)
inactive: [1] -0.032 | crizotinib -0.004 | [2] -0.029 | [3] 0.007 | duvelisib -0.08 | gandotinib -0.048 | tozasertib -0.033 | [4] -0.101 | doramapimod 0.058 | ispinesib -0.014

CLPTM1 (UniProt O96005)
inactive: [1] 0.015 | crizotinib -0.036 | [2] -0.048 | [3] 0.071 | duvelisib 0.003 | gandotinib -0.032 | tozasertib 0.025 | [4] 0.019 | doramapimod 0.02 | ispinesib -0.16

CHMP6 (UniProt Q96FZ7)
inactive: [1] 0.047 | crizotinib 0.13 | [2] 0.016 | [3] -0.038 | duvelisib 0.116 | gandotinib 0.02 | tozasertib -0.002 | [4] 0.04 | doramapimod -0.043 | ispinesib 0.117

CLGN (UniProt O14967)
inactive: [1] -0.029 | crizotinib -0.098 | [2] -0.042 | [3] 0.007 | duvelisib -0.104 | gandotinib 0.028 | tozasertib -0.003 | [4] 0.005 | doramapimod 0.042 | ispinesib -0.045

CHRAC1 (UniProt Q9NRG0)
inactive: [1] -0.061 | crizotinib -0.097 | [2] 0.042 | [3] -0.04 | duvelisib 0.074 | gandotinib -0.084 | tozasertib -0.003 | [4] -0.008 | doramapimod 0.016 | ispinesib 0.176

CLCC1 (UniProt Q96S66)
inactive: [1] -0.001 | crizotinib 0.02 | [2] 0.043 | [3] -0.055 | duvelisib 0.051 | gandotinib -0.091 | tozasertib -0.017 | [4] 0.012 | doramapimod 0 | ispinesib 0.025

CISD3 (UniProt P0C7P0)
inactive: [1] -0.075 | crizotinib 0.065 | [2] 0.024 | [3] -0.273 | duvelisib -0.227 | gandotinib 0.056 | tozasertib -0.032 | [4] 0.055 | doramapimod 0.017 | ispinesib -0.198

CMBL (UniProt Q96DG6)
inactive: [1] 0.07 | crizotinib 0.108 | [2] 0.011 | [3] -0.06 | duvelisib 0.024 | gandotinib 0.008 | tozasertib -0.024 | [4] -0.04 | doramapimod -0.062 | ispinesib 0.032

CNP (UniProt P09543)
inactive: [1] 0.024 | crizotinib 0.01 | [2] 0.058 | [3] -0.038 | duvelisib 0.105 | gandotinib 0.028 | tozasertib -0.037 | [4] 0.03 | doramapimod -0.041 | ispinesib 0.038

CLIC1 (UniProt O00299)
inactive: [1] 0.011 | crizotinib 0.079 | [2] 0.05 | [3] -0.053 | duvelisib 0.013 | gandotinib -0.018 | tozasertib 0.003 | [4] 0 | doramapimod -0.072 | ispinesib 0.096

CMPK1 (UniProt P30085)
inactive: [1] 0.028 | crizotinib -0.083 | [2] 0.009 | [3] -0.076 | duvelisib 0.029 | gandotinib -0.059 | tozasertib -0.003 | [4] 0.014 | doramapimod -0.016 | ispinesib 0.022

CLDND1 (UniProt Q9NY35)
inactive: [1] 0.065 | crizotinib 0.094 | [2] 0.047 | [3] 0.092 | duvelisib 0 | gandotinib 0 | tozasertib 0.049 | [4] -0.056 | doramapimod -0.001 | ispinesib -0.196

COL1A2 (UniProt P08123)
inactive: [1] 0.022 | crizotinib 0.229 | [2] -0.013 | [3] 0.179 | duvelisib -0.027 | gandotinib -0.022 | tozasertib -0.124 | [4] -0.288 | doramapimod -0.146 | ispinesib 0.016

Two records picked at random from the list so far, as already listed:
CMBL (UniProt Q96DG6)
inactive: [1] 0.07 | crizotinib 0.108 | [2] 0.011 | [3] -0.06 | duvelisib 0.024 | gandotinib 0.008 | tozasertib -0.024 | [4] -0.04 | doramapimod -0.062 | ispinesib 0.032

CHRAC1 (UniProt Q9NRG0)
inactive: [1] -0.061 | crizotinib -0.097 | [2] 0.042 | [3] -0.04 | duvelisib 0.074 | gandotinib -0.084 | tozasertib -0.003 | [4] -0.008 | doramapimod 0.016 | ispinesib 0.176

Further records.

CIRBP isoform 2 (UniProt Q14011)
inactive: [1] -0.052 | crizotinib -0.004 | [2] -0.255 | [3] 0.15 | duvelisib -0.141 | gandotinib 0.248 | tozasertib 0.007 | [4] 0.014 | doramapimod 0.028 | ispinesib -0.041

CKMT2 (UniProt P17540)
inactive: [1] 0.331 | crizotinib 0.095 | [2] -0.019 | [3] 0.039 | duvelisib -0.051 | gandotinib 0.082 | tozasertib 0.055 | [4] 0.142 | doramapimod -0.005 | ispinesib -0.054

CISD2 (UniProt Q8N5K1)
inactive: [1] -0.008 | crizotinib 0.065 | [2] -0.001 | [3] -0.079 | duvelisib 0.012 | gandotinib 0.031 | tozasertib -0.007 | [4] -0.031 | doramapimod -0.039 | ispinesib 0.066

CNST (UniProt Q6PJW8)
inactive: [1] -0.021 | crizotinib 0.055 | [2] 0.048 | [3] -0.024 | duvelisib 0.03 | gandotinib -0.046 | tozasertib -0.022 | [4] -0.023 | doramapimod 0.01 | ispinesib 0.025

CMAS (UniProt Q8NFW8)
inactive: [1] -0.046 | crizotinib -0.041 | [2] -0.173 | [3] 0.252 | duvelisib -0.027 | gandotinib 0.045 | tozasertib -0.014 | [4] 0.029 | doramapimod 0.072 | ispinesib -0.178

CLIP4 (UniProt Q8N3C7)
inactive: [1] 0.032 | crizotinib 0.131 | [2] 0.057 | [3] -0.029 | duvelisib 0.338 | gandotinib -0.031 | tozasertib -0.058 | [4] -0.009 | doramapimod -0.066 | ispinesib 0.029

CLTC (UniProt Q00610)
inactive: [1] 0.029 | crizotinib 0.014 | [2] -0.08 | [3] 0.096 | duvelisib -0.041 | gandotinib -0.038 | tozasertib 0.03 | [4] -0.011 | doramapimod 0.007 | ispinesib 0.023

CMPK2 (UniProt Q5EBM0)
inactive: [1] 0.058 | crizotinib -0.016 | [2] 0.107 | [3] 0.088 | duvelisib 0.044 | gandotinib -0.031 | tozasertib -0.044 | [4] -0.032 | doramapimod 0.038

CHURC1 isoform 2 (UniProt Q8WUH1)
inactive: [1] -0.041 | crizotinib 0.108 | [2] -0.029 | [3] -0.055 | duvelisib -0.003 | gandotinib 0.065 | tozasertib 0.028 | [4] 0.014 | doramapimod -0.201 | ispinesib -0.077

CIB1 isoform 2 (UniProt Q99828)
inactive: [1] 0.037 | crizotinib 0.009 | [2] 0.058 | [3] -0.019 | duvelisib 0.008 | gandotinib 0.069 | tozasertib 0.024 | [4] -0.075 | doramapimod 0 | ispinesib -0.073

COA3 (UniProt Q9Y2R0)
inactive: [1] -0.008 | crizotinib 0.117 | [2] 0.009 | [3] -0.045 | duvelisib 0.015 | gandotinib 0.031 | tozasertib 0.023 | [4] -0.059 | doramapimod 0.004 | ispinesib 0.023
